Measured data: PubChem BioAssay AID686938 (Drosophila RNAi Screening Center, 2013)
Screen: 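Fly genes required for calcium entry once internal stores are emptied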 (primary screen). System: Drosophila S2R+ cells. Knock-down reagent: long dsRNA against Drosophila genes, about 0.25 µg dsRNA per well, roughly 10,000 cells. Time to read-out: 5 days of knock-down before the calcium assay. Conditions: thapsigargin (SERCA pump blocker) to empty calcium stores; entry signal taken 4 min after adding it. Measured: 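Per-well fluo-4 fluorescence in two replicates, unnormalised, measured in resting cells and 4 min after store depletion by the SERCA blocker thapsigargin; ratio of the two present in few wells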. Scale: calcium entry signal: higher = stronger calcium signal after store depletion; entry to resting ratio: higher = more calcium entry relative to resting level; resting calcium signal: higher = higher resting calcium signal. Units: calcium entry signal in fluorescence units; resting calcium signal in fluorescence units. Rule for the call: 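Hit if the duplicate-averaged plate z-score for entry over resting signal is under −3; wells with weak total dye signal (Fmax z < −2) or more than 5 off-targets removed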. Calls: active = strongly reduced calcium entry; inactive = no strong reduction.
In all, the deposit lists about 23,000 reagents; below is an unselected part of those that have a named target and a result. Of all reagents, 75 (0.33%) got an active call. 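Raw plate signals without normalisation; calls rest on plate z-scores that were not deposited; ratio present for only 364 wells.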 Unmarked entries are inactive. The numbers tell different reagents against one gene apart. A plus sign joins genes that one reagent is predicted to hit. The record does not give: the dose of the treatment.

Silencing of CG31751 #1 came out at: calcium entry signal, replicate 1 = 2.58e7; calcium entry signal, replicate 2 = 4.16e7; resting calcium signal, replicate 1 = 1.31e7; resting calcium signal, replicate 2 = 1.71e7.
For CG31751 #2, the values are calcium entry signal, replicate 1 = 2.69e7; calcium entry signal, replicate 2 = 4.18e7; resting calcium signal, replicate 1 = 1.43e7; resting calcium signal, replicate 2 = 1.72e7.
Knock-down of CG7768 came out at: calcium entry signal, replicate 1 = 2.36e7; calcium entry signal, replicate 2 = 3.41e7; resting calcium signal, replicate 1 = 1.21e7; resting calcium signal, replicate 2 = 2.30e7.
After knock-down of VhaM9.7-b, the screen gave calcium entry signal, replicate 1 = 2.37e7; calcium entry signal, replicate 2 = 4.26e7; resting calcium signal, replicate 1 = 1.25e7; resting calcium signal, replicate 2 = 1.97e7.
After knock-down of RhoGAP1A #1 the results were calcium entry signal, replicate 1 = 5.44e7; calcium entry signal, replicate 2 = 5.17e7; resting calcium signal, replicate 1 = 2.59e7; resting calcium signal, replicate 2 = 2.16e7.
RhoGAP1A #2 showed calcium entry signal, replicate 1 = 4.59e7; calcium entry signal, replicate 2 = 4.78e7; resting calcium signal, replicate 1 = 2.45e7; resting calcium signal, replicate 2 = 2.17e7.
For CG9338, the values are calcium entry signal, replicate 1 = 3.21e7; resting calcium signal, replicate 1 = 1.59e7.
Silencing of CG5532 came out at: calcium entry signal, replicate 1 = 3.04e7; calcium entry signal, replicate 2 = 2.09e7; resting calcium signal, replicate 1 = 1.41e7; resting calcium signal, replicate 2 = 1.11e7.
Against CG15141 #1, the entry reads calcium entry signal, replicate 1 = 3.42e7; resting calcium signal, replicate 1 = 1.82e7.
With knock-down of CG15141 #2, the record shows calcium entry signal, replicate 1 = 4.24e7; calcium entry signal, replicate 2 = 2.76e7; resting calcium signal, replicate 1 = 1.95e7; resting calcium signal, replicate 2 = 1.37e7.

Only “calcium entry signal, replicate 2” (2 entries from above):
CG31751 #2	4.18e7
CG7768	3.41e7

Continued:
gkt + CR31953 scored calcium entry signal, replicate 1 = 4.37e7; resting calcium signal, replicate 1 = 2.44e7.
After knock-down of Or33c, the screen gave calcium entry signal, replicate 1 = 2.68e7; calcium entry signal, replicate 2 = 1.89e7; resting calcium signal, replicate 1 = 1.30e7; resting calcium signal, replicate 2 = 8.99e6.
Alr gave calcium entry signal, replicate 1 = 3.42e7; calcium entry signal, replicate 2 = 4.33e7; resting calcium signal, replicate 1 = 1.48e7; resting calcium signal, replicate 2 = 1.78e7.
Prtl99C scored calcium entry signal, replicate 1 = 3.79e7; calcium entry signal, replicate 2 = 6.17e7; resting calcium signal, replicate 1 = 1.93e7; resting calcium signal, replicate 2 = 2.54e7.
CG30026 gave calcium entry signal, replicate 1 = 3.49e7; calcium entry signal, replicate 2 = 3.98e7; resting calcium signal, replicate 1 = 2.79e7; resting calcium signal, replicate 2 = 1.97e7.
Silencing of Nlg3 #1 gave: calcium entry signal, replicate 1 = 3.40e7; calcium entry signal, replicate 2 = 4.73e7; resting calcium signal, replicate 1 = 1.64e7; resting calcium signal, replicate 2 = 2.60e7.
For Nlg3 #2, the entry reads calcium entry signal, replicate 1 = 6.36e7; calcium entry signal, replicate 2 = 4.46e7; resting calcium signal, replicate 1 = 2.70e7; resting calcium signal, replicate 2 = 2.05e7.
Depletion of Nlg3 #3 gave: calcium entry signal, replicate 1 = 4.14e7; calcium entry signal, replicate 2 = 3.82e7; resting calcium signal, replicate 1 = 2.19e7; resting calcium signal, replicate 2 = 1.85e7.
Depletion of Nlg3 #4 gave: calcium entry signal, replicate 1 = 3.30e7; calcium entry signal, replicate 2 = 2.62e7; resting calcium signal, replicate 1 = 1.61e7; resting calcium signal, replicate 2 = 1.34e7.
Against CG9107, the entry reads calcium entry signal, replicate 1 = 3.15e7; resting calcium signal, replicate 1 = 1.83e7.
Knock-down of TpnC4 gave: calcium entry signal, replicate 1 = 3.86e7; calcium entry signal, replicate 2 = 3.69e7; resting calcium signal, replicate 1 = 1.73e7; resting calcium signal, replicate 2 = 1.64e7.
Axn showed calcium entry signal, replicate 1 = 1.12e8; calcium entry signal, replicate 2 = 3.36e7; resting calcium signal, replicate 1 = 3.15e7; resting calcium signal, replicate 2 = 1.59e7.
CG1690 scored calcium entry signal, replicate 1 = 3.91e7; calcium entry signal, replicate 2 = 5.28e7; resting calcium signal, replicate 1 = 1.88e7; resting calcium signal, replicate 2 = 2.04e7.
For CG11327 the deposit lists calcium entry signal, replicate 1 = 2.75e7; calcium entry signal, replicate 2 = 2.64e7; resting calcium signal, replicate 1 = 1.38e7; resting calcium signal, replicate 2 = 1.33e7.
CG17776 gave calcium entry signal, replicate 1 = 3.81e7; calcium entry signal, replicate 2 = 6.25e7; entry to resting ratio 2; resting calcium signal, replicate 1 = 1.93e7; resting calcium signal, replicate 2 = 2.46e7.
Against Als2 the deposit lists calcium entry signal, replicate 1 = 3.56e7; calcium entry signal, replicate 2 = 4.16e7; resting calcium signal, replicate 1 = 1.77e7; resting calcium signal, replicate 2 = 2.74e7.
CG15023 gave calcium entry signal, replicate 1 = 2.90e7; calcium entry signal, replicate 2 = 5.28e7; resting calcium signal, replicate 1 = 1.32e7; resting calcium signal, replicate 2 = 2.12e7.
